Experimental data published in paper PMC10735225.

Target: Myc-tagged RSPH3 (mouse)
Assay: co-IP; lysates of transfected HEK293T cells (Pierce IP Lysis Buffer); 2 ug anti-Myc or anti-FLAG antibody, Protein A/G agarose; western blot

B1: FLAG-tagged CFAP52 (cilia and flagella associated protein 52) (protein, UniProt Q5F201-1 1-620)
chain: MEEQVLPELDVAELELQAVIGFNGHVPNGLKCHPDQEHLIYPLGCTVLIQAINTNEQNFLHGHGNNVSCVTISKEGDYIASGQVTFMGFKADIILWDFKKRELIARLSLHKGKIEALAFSPNDLYLVSLGGPDDGSVVVWSIAKRDAICGSPAAGLNVGNATSVVFSRCRDEMFVTAGNGTIRVWELDLPNRKIWPTECQTGQMKRIVLSTGMADDDSFFYLGTTTGDILKMNPKTKLLADTGPVKDKFSLGVSALRCLKMGGLLVGSGAGLLIFCKSPSYKPIKKVQLQGGITSITLRGEGHQFFVGTEESHIYRVNFTDFKETLIATCHFEAVQDIVFPFGTAELFATCAKKDIRVWHTMSKRELLRITVPNMTCHGIDFMRDGKSIISAWDDGKIRAFAPESGRLMYTINSAHRIGVTAIATTSDCKRIISGGGEGEVRVWQVGCQTQKLEEALKEHKSSVSCIRVKKNNEECVTASTDGTCIIWDLVRLRRNQMILANTLFQCVCYHPEEFQIITSGTDRKIAYWEVFDGSVIRELEGSLSGSINGMDITQEGGHFVTGGHDHLVKVWDYNEGEVTHVGVGHSGNIMAMRISPGNQYIVSVSADGAILRWKYPFAS
  binding: binds

Results are given in words; binding and its absence hold for the method and conditions named. Binding seen in cells or lysates may run through a third protein. A result given as binding can be weak or reduced; the word gives no strength. Where a sequence is shown, tags or fusion partners need not be part of it.
